Experimental data reported in PubChem BioAssay AID493014 (National Center for Advancing Translational Sciences (NCATS), 2011).
The whole screen tested about 340,000 compounds, of which about 170 (0.05%) were called active. Inconclusive results, whose numbers are uncertain, are shown with a selection of clear calls. The call rests on the fitted dose curve; in most records, active means well fitted inhibition curve with a large enough effect in the signal ratio, with a control signal flat (not every such curve was filed as active); inconclusive means small, poorly fitted or top-dose-only effect, or effect the other way, or a change in a side signal; inactive means flat fitted curve, though single readings scatter; the % refers to the signal ratio. Potencies of inconclusive entries are doubtful fits and often do not repeat. Square brackets hold non-standard residues; d marks the D form. Peptide text beside a SMILES is read from it. * marks the point of attachment. Hyp = O=C(O)[CH]1C[CH](O)CN1; Cbz = O=C(OCc1ccccc1)*; OBn = c1ccc(CO*)cc1

Experiment: qHTS Assay to Find Inhibitors of Chronic Active B-Cell Receptor Signaling;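 on activity change, negative = inhibition: plate controls were basal doxycycline-induced cells for no effect and cells given 10 µM MG132 for full effect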
Conditions: ABC-DLBCL IkBa-CBG/CBR reporter, luminescence ratio (green luciferase fused to IkBa over red control in TMD8 lymphoma cells), 4 h; activity change, negative = inhibition: at 46.1 µM (top of the series) unless noted
In short: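 Concentration-response series (up to 46 uM) were applied to TMD8 dual-reporter cells for 4 h at 37C with doxycycline. Green/red ratio, after filter-overlap correction, defined %Activity; red signal alone was normalised to basal cells and zero luminescence.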
Potency means the concentration at half of the fitted maximal effect.

SMILES	activity change, negative = inhibition	Potency
[O-][n+]1c2ccccc2c2n1CCN=C2c1ccc(Cl)cc1	inconclusive: -15.4%	–
O=C(Nc1ccccc1)c1cc2ccccc2[nH]1	–	inconclusive: 18.4 µM [falling, partial curve]
O=C(Nc1ccc(F)cc1)C1=CC(=O)N2CCN=C2S1	–	inconclusive: 17.8 µM [falling, partial curve, poor fit]
CCO[C@H]1OC(C(=O)N2CCN(C)CC2)=C[C@@H](c2coc3ccccc3c2=O)[C@@H]1CCCO	inactive: -9.99%	–
CCC(=O)N(C)CCc1cc2c(c(OC)c1/C=N/NC(=O)c1ccccc1O)OCO2	–	inconclusive: 23.1 µM [falling, partial curve]
Cc1nc2ccccc2c(=O)n1/N=C/c1ccc2ccccc2c1O	inconclusive: -0.625%	–
COc1ccc(-c2nnc(SCC(=O)NCc3ccccc3)nc2-c2ccc(OC)c(OC)c2)cc1OC	–	inconclusive: 6.31 µM [falling, full curve]
Cc1ccc(C(=O)c2c3ccc([N+](=O)[O-])cc3[n+]([O-])n2CCCN)cc1	inactive: -26.5%	–
NC(=O)c1ccc(-n2nnnc2SCC(=O)Nc2ccc(N3CCOCC3)c(Cl)c2)cc1	–	inconclusive: 29.1 µM [falling, partial curve, poor fit]
COc1ccc(C(=O)CCN2CCCCCC2)cc1	inconclusive: 0.792%	–
COc1cc(CNC2CCCC2)cc(Cl)c1OCc1ccccc1Cl	inconclusive: -23.1%	–
CCOC(=O)N1CCC(N2C(=O)c3ccccc3C2Nc2ccc3c(C)cc(=O)oc3c2)CC1 (stereo not given)	inconclusive: 0.889%	–
CCN1c2ccccc2N(C)C1(C)c1ccccc1 (stereo not given)	inactive: -1.6%	–
Cn1cc(Cl)c(C(=O)NNC(=S)NC2CCCCC2)n1	–	inconclusive: 16.4 µM [falling, partial curve]
CCN(CC)Cc1c(C(=O)N/N=C/c2cccnc2)nnn1-c1nonc1N	inactive: -0.649%	–
CN(C)c1ccc(N/C(=N\S(=O)(=O)c2cccs2)c2ccccc2)cc1	–	inconclusive: 29.1 µM [falling, single point]
O=C(N/N=C/c1cccc(OC(=O)c2ccccc2Cl)c1)c1cccnc1	inconclusive: -0.708%	–
CN(C)N1C(N)=C(C#N)C(c2ccc(F)cc2)C2=C1CC(C)(C)CC2=O (stereo not given)	inconclusive: 0.888%	–
COc1ccc(CNC(=S)Nc2ccccc2-c2ccccc2)cc1	inactive: -9.47%	–
O=C(CNC(=S)NC(=O)c1ccccc1Br)c1ccccc1	–	inconclusive: 7.94 µM [falling, partial curve, poor fit]
COC(=O)c1ccc(NC2=C(Cl)C(=O)OC2OC(=O)c2ccccc2)cc1 (stereo not given)	inactive: 3.93%	–
O=C(O)c1ccc(Cl)c(S(=O)(=O)N(Cc2ccccc2)c2ccc(F)cc2)c1	inconclusive: -2.5%	–
CCc1ccccc1N(C)S(=O)(=O)c1ccc2[nH]cc(C(=O)NCCOC)c(=O)c2c1	inactive: 4.2%	–
CCn1c(COc2ccccc2)nnc1SCC(=O)C(C)(C)C	–	inconclusive: 35.5 µM [falling, partial curve, poor fit]
CCOc1cc(C2C(C#N)=C(N)OC(C)=C2C(C)=O)c(Br)c(Br)c1OC(C)C (stereo not given)	–	inconclusive: 13 µM [falling, partial curve]

SMILES	activity change, negative = inhibition	Potency
Cc1cc(C)c(OCC(=O)NCC2COc3ccccc3O2)c(C)c1 (stereo not given)	inconclusive: 0.274%	–
Nc1nc(Cl)cc(NCCc2ccccc2)n1	–	inconclusive: 31.6 µM [falling, single point]
O=C(CCn1c(=O)[nH]c2ccccc2c1=O)NCCSCc1ccccc1	inconclusive: 4.3%	–
Cc1c(C(=O)NCc2nnc(-c3ccccc3)o2)oc2c(F)cccc12	–	inconclusive: 14.1 µM [falling, partial curve, poor fit]
CCC(C(=O)OCC(=O)Nc1cccc(S(=O)(=O)NC2=NCCCCC2)c1)c1ccccc1 (stereo not given)	–	inconclusive: 35.5 µM [falling, single point]
O=C(CSc1ccc(-c2nc3ccccc3[nH]2)cn1)Nc1ccc(S(=O)(=O)N2CCCC2)cc1	–	inconclusive: 18.4 µM [rising, partial curve, poor fit]
COC(=O)CC1C(=O)NCCN1C(=O)Nc1ccc(Cl)cc1 (stereo not given)	inconclusive: 12.6%	–
Cc1ccc(Cl)c2c(N=Nc3ccccc3)c(O)[nH]c12	inactive: -1.49%	–
CCOC(=O)C(NCc1ccc(F)cc1)(NC(=O)c1ccccc1)C(F)(F)F (stereo not given)	–	inconclusive: 4.11 µM [falling, full curve, poor fit]
O=C(NCC(=O)N1CC(O)CC1C(=O)N1CCCC1C(=O)OCc1ccccc1)OCc1ccccc1 (stereo not drawn) (Cbz-Gly-[Hyp]-Pro-OBn; configuration not given here)	inconclusive: 16.9%	–
Cc1ccccc1C(=O)c1c[nH]c(C(=O)N2CCN(c3ccccc3F)CC2)c1	inconclusive: -8.2%	–
c1ccc(SCc2cn(C[C@H]3CC[C@@H]([C@@H]4CC[C@H](Cn5cc(CSc6ccccc6)nn5)O4)O3)nn2)cc1	inactive: 15.2%	–
O=C(Cn1nc(-c2ccccc2Cl)ccc1=O)Nc1ccc(Br)cc1	inconclusive: 25.5%	–
CC1(C(=O)N2CCC(CO)(Cc3cccc(C(F)(F)F)c3)CC2)CC1	inactive: 3.07%	–
O=C(Nc1ccc(Br)cc1)c1ccc(Br)c(S(=O)(=O)N2CCCCC2)c1	inactive: 23.7%	–
COc1cccc(-c2cc(C(=O)O)no2)c1	–	inconclusive: 2.31 µM [falling, partial curve, poor fit]
O=C(COC(=O)c1cccc([N+](=O)[O-])c1)NCC1CCCO1 (stereo not given)	inactive: -0.551%	–
Cc1ccc2cccnc2c1NC(=S)NC(=O)c1ccccc1	inconclusive: 16.3%	–
O=C(N/N=C/c1ccc(OCC(=O)N2CCOCC2)cc1)c1ccccc1Cl	–	inconclusive: 20 µM [falling, single point]
CC1CCCCC1NC(=O)c1ccc2c(c1)OCCO2 (stereo not given)	–	inconclusive: 20.6 µM [falling, single point]
CCOC(=O)c1ccc(Oc2coc3cc(O)ccc3c2=O)cc1	inactive: -10.7%	–
CCn1cc(/C=N\NC(=O)c2csc3ccccc23)c(C)n1	–	inconclusive: 4.61 µM [falling, full curve]
Cc1ccc(N2C(=O)c3ccccc3NC2C(C)Cc2ccc3c(c2)OCO3)cc1 (stereo not given)	inconclusive: 7.18%	–
Cc1cc(C(=O)NC(=S)Nc2cccc(C(=O)O)c2C)ccc1[N+](=O)[O-]	–	inconclusive: 20 µM [falling, partial curve]
Cc1c(N=C2SCC(=O)N2/N=C/c2ccccc2)c(=O)n(-c2ccccc2)n1C	inconclusive: 18.8%	–

SMILES	activity change, negative = inhibition	Potency
CC1CCCC(C)N1CC(O)COc1c(F)cc(Br)cc1F (stereo not given)	–	inconclusive: 35.5 µM [falling, single point]
O=C(CSc1nnc(-c2cccnc2)o1)Nc1ccccc1Br	inconclusive: -0.106%	–
O=C(NC(=S)Nc1ccccc1O)c1ccc(-c2ccc(Cl)cc2)o1	inactive: 4.16%	–
Cc1ccc(N=c2c([N+](=O)[O-])nn(-c3ccc4c(c3)OCCO4)n2O)c(Cl)c1	–	inconclusive: 0.316 µM [falling, full curve, poor fit]
O=C(/C=C/Nc1ccc(F)c(Cl)c1)c1ccccc1	–	inconclusive: 22.4 µM [falling, partial curve]
C=CCn1c(SCC(=O)OCC)nc2cc(C(=O)NCc3ccco3)ccc2c1=O	–	inconclusive: 1.46 µM [rising, full curve]
OCC1(Cc2ccccc2)CCN(Cc2ccc(C(F)(F)F)cc2)CC1	inactive: -1.31%	–
NC(=S)N=Nc1c(O)n(Cc2ccc(F)cc2)c2ccccc12	–	inconclusive: 13 µM [falling, partial curve]
CC(=O)c1cnc2c(-c3ccc(Cl)cc3)cnn2c1C	inconclusive: 12.3%	–
CSc1ccccc1NC(=O)CNCCCN1CCOCC1	inconclusive: 3.7%	–
Cc1nc(-c2ccc(Cl)cc2)sc1C(=O)O	–	inconclusive: 3.55 µM [falling, partial curve, poor fit]
CC1(C)CC(=O)C(C(C2=C(O)CC(C)(C)CC2=O)c2ccc(O)c([N+](=O)[O-])c2)=C(O)C1	inconclusive: -0.188%	–
C=CCNC(=O)/C(C#N)=C/c1c(N2CCN(c3cccc(Cl)c3)CC2)nc2c(C)cccn2c1=O	inactive: 0.509%	–
Cc1cc(C)c(C)c(S(=O)(=O)N2CCN(C(=O)C3CCC3)CC2)c1C	inactive: -10.4%	–
Cc1ccccc1NC(=O)Cn1c(=O)n(-c2ccc(CC(=O)NCC3CCCO3)cc2)c(=O)c2ccccc21 (stereo not given)	inconclusive: -8.18%	–
Nc1nc(C(F)(F)F)cc(=O)n1N	inactive: 1.21%	–
CC(C)(C)C(=O)N1N=C(c2cccc(NS(C)(=O)=O)c2)CC1c1cccs1 (stereo not given)	–	inconclusive: 3.55 µM [falling, full curve]
COc1cc(OC)cc(C(=O)N[C@H](C(=O)OCC(=O)Nc2ccc(F)c(F)c2)C(C)C)c1	inconclusive: 3.88%	–
Cn1c(=O)n(CCCOc2ccc(Cl)cc2)c2ccccc21	inconclusive: -0.238%	–
Cc1sc(NC(=O)C2=COCCO2)c(C(N)=O)c1C	inactive: 1.43%	–
COc1ccc(Nc2nc(NCc3ccco3)nc(N/N=C/c3ccccc3F)n2)cc1	inactive: -3.1%	–
Cc1cc(Oc2cc(N)cc([N+](=O)[O-])c2)ccc1Cl	inconclusive: 5.36%	–
CC(C)(C)NC(=O)CN(Cc1cccnc1)C(=O)c1csnn1	inconclusive: 3.62%	–
Cc1ccc(S(=O)(=O)Nc2ccc(NC(=O)c3c(F)c(F)c(F)c(F)c3F)cc2)cc1	–	inconclusive: 35.5 µM [falling, single point]
O=C1CC(c2ccccc2)C(=O)N1c1cccc(O)c1 (stereo not given)	inconclusive: 0.802%	–

Arranged by length of the SMILES (high to low): part of the list above
SMILES	activity change, negative = inhibition	Potency
Cc1ccccc1NC(=O)Cn1c(=O)n(-c2ccc(CC(=O)NCC3CCCO3)cc2)c(=O)c2ccccc21 (stereo not given)	inconclusive: -8.18%	–
COc1cc(OC)cc(C(=O)N[C@H](C(=O)OCC(=O)Nc2ccc(F)c(F)c2)C(C)C)c1	inconclusive: 3.88%	–
O=C(NC(=S)Nc1ccccc1O)c1ccc(-c2ccc(Cl)cc2)o1	inactive: 4.16%	–
CC(=O)c1cnc2c(-c3ccc(Cl)cc3)cnn2c1C	inconclusive: 12.3%	–
O=C1CC(c2ccccc2)C(=O)N1c1cccc(O)c1 (stereo not given)	inconclusive: 0.802%	–
